Here are results for 4 molecules from doi:10.1101/2023.08.29.555105.

Experiment [1] concerns the target dsRNA-activated protein kinase R (PKR) (human (endogenous in A549)) (UniProt P19525). The experiment in a line: co-IP.
In experiment [2] the target is T1, dsRNA-activated protein kinase R (PKR) (human (endogenous in A549)), P19525.
T1 chain: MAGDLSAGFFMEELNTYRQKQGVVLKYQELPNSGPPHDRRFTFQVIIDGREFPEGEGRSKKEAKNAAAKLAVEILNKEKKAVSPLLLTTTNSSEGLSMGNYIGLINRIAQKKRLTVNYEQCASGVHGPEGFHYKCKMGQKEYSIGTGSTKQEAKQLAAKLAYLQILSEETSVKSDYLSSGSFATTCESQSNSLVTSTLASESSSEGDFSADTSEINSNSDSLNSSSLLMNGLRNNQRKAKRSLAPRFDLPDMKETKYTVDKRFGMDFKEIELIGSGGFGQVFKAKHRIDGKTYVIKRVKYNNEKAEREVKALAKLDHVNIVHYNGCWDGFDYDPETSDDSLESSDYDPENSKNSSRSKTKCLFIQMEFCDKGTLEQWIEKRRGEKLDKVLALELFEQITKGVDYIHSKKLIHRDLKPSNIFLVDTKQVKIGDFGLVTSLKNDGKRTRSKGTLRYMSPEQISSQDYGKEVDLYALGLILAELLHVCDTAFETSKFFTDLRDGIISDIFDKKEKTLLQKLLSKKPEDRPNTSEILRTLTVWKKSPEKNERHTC
The experiment in a line: co-IP. The note with it: remark: other sources report otherwise.

These are yes or no findings as the source states them, for the method shown. Binding seen in cells or lysates may run through a third protein. Some results given as binding are weak or reduced against the parent protein; the word gives no strength. For some of these results: Sequences can lack the tags named with a protein.

B1: ADAR1 p150 (adenosine deaminase acting on RNA 1, IFN-inducible p150 isoform) (protein, UniProt P55265-1 1-1226)
chain: MNPRQGYSLSGYYTHPFQGYEHRQLRYQQPGPGSSPSSFLLKQIEFLKGQLPEAPVIGKQTPSLPPSLPGLRPRFPVLLASSTRGRQVDIRGVPRGVHLRSQGLQRGFQHPSPRGRSLPQRGVDCLSSHFQELSIYQDQEQRILKFLEELGEGKATTAHDLSGKLGTPKKEINRVLYSLAKKGKLQKEAGTPPLWKIAVSTQAWNQHSGVVRPDGHSQGAPNSDPSLEPEDRNSTSVSEDLLEPFIAVSAQAWNQHSGVVRPDSHSQGSPNSDPGLEPEDSNSTSALEDPLEFLDMAEIKEKICDYLFNVSDSSALNLAKNIGLTKARDINAVLIDMERQGDVYRQGTTPPIWHLTDKKRERMQIKRNTNSVPETAPAAIPETKRNAEFLTCNIPTSNASNNMVTTEKVENGQEPVIKLENRQEARPEPARLKPPVHYNGPSKAGYVDFENGQWATDDIPDDLNSIRAAPGEFRAIMEMPSFYSHGLPRCSPYKKLTECQLKNPISGLLEYAQFASQTCEFNMIEQSGPPHEPRFKFQVVINGREFPPAEAGSKKVAKQDAAMKAMTILLEEAKAKDSGKSEESSHYSTEKESEKTAESQTPTPSATSFFSGKSPVTTLLECMHKLGNSCEFRLLSKEGPAHEPKFQYCVAVGAQTFPSVSAPSKKVAKQMAAEEAMKALHGEATNSMASDNQPEGMISESLDNLESMMPNKVRKIGELVRYLNTNPVGGLLEYARSHGFAAEFKLVDQSGPPHEPKFVYQAKVGGRWFPAVCAHSKKQGKQEAADAALRVLIGENEKAERMGFTEVTPVTGASLRRTMLLLSRSPEAQPKTLPLTGSTFHDQIAMLSHRCFNTLTNSFQPSLLGRKILAAIIMKKDSEDMGVVVSLGTGNRCVKGDSLSLKGETVNDCHAEIISRRGFIRFLYSELMKYNSQTAKDSIFEPAKGGEKLQIKKTVSFHLYISTAPCGDGALFDKSCSDRAMESTESRHYPVFENPKQGKLRTKVENGEGTIPVESSDIVPTWDGIRLGERLRTMSCSDKILRWNVLGLQGALLTHFLQPIYLKSVTLGYLFSQGHLTRAICCRVTRDGSAFEDGLRHPFIVNHPKVGRVSIYDSKRQSGKTKETSVNWCLADGYDLEILDGTRGTVDGPRNELSRVSKKNIFLLFKKLCSFRYRRDLLRLSYGEAKKAARDYETAKNYFKKGLKDMGYGNWISKPQEEKNFYLCPV
With B1, in experiment [1], the binding result is recorded as “binds”.

B2: HA-tagged human ADAR1 p150 K777E (protein, UniProt P55265-1 1-1226)
chain: MNPRQGYSLSGYYTHPFQGYEHRQLRYQQPGPGSSPSSFLLKQIEFLKGQLPEAPVIGKQTPSLPPSLPGLRPRFPVLLASSTRGRQVDIRGVPRGVHLRSQGLQRGFQHPSPRGRSLPQRGVDCLSSHFQELSIYQDQEQRILKFLEELGEGKATTAHDLSGKLGTPKKEINRVLYSLAKKGKLQKEAGTPPLWKIAVSTQAWNQHSGVVRPDGHSQGAPNSDPSLEPEDRNSTSVSEDLLEPFIAVSAQAWNQHSGVVRPDSHSQGSPNSDPGLEPEDSNSTSALEDPLEFLDMAEIKEKICDYLFNVSDSSALNLAKNIGLTKARDINAVLIDMERQGDVYRQGTTPPIWHLTDKKRERMQIKRNTNSVPETAPAAIPETKRNAEFLTCNIPTSNASNNMVTTEKVENGQEPVIKLENRQEARPEPARLKPPVHYNGPSKAGYVDFENGQWATDDIPDDLNSIRAAPGEFRAIMEMPSFYSHGLPRCSPYKKLTECQLKNPISGLLEYAQFASQTCEFNMIEQSGPPHEPRFKFQVVINGREFPPAEAGSKKVAKQDAAMKAMTILLEEAKAKDSGKSEESSHYSTEKESEKTAESQTPTPSATSFFSGKSPVTTLLECMHKLGNSCEFRLLSKEGPAHEPKFQYCVAVGAQTFPSVSAPSKKVAKQMAAEEAMKALHGEATNSMASDNQPEGMISESLDNLESMMPNKVRKIGELVRYLNTNPVGGLLEYARSHGFAAEFKLVDQSGPPHEPKFVYQAKVGGRWFPAVCAHSEKQGKQEAADAALRVLIGENEKAERMGFTEVTPVTGASLRRTMLLLSRSPEAQPKTLPLTGSTFHDQIAMLSHRCFNTLTNSFQPSLLGRKILAAIIMKKDSEDMGVVVSLGTGNRCVKGDSLSLKGETVNDCHAEIISRRGFIRFLYSELMKYNSQTAKDSIFEPAKGGEKLQIKKTVSFHLYISTAPCGDGALFDKSCSDRAMESTESRHYPVFENPKQGKLRTKVENGEGTIPVESSDIVPTWDGIRLGERLRTMSCSDKILRWNVLGLQGALLTHFLQPIYLKSVTLGYLFSQGHLTRAICCRVTRDGSAFEDGLRHPFIVNHPKVGRVSIYDSKRQSGKTKETSVNWCLADGYDLEILDGTRGTVDGPRNELSRVSKKNIFLLFKKLCSFRYRRDLLRLSYGEAKKAARDYETAKNYFKKGLKDMGYGNWISKPQEEKNFYLCPV
With B2, in experiment [1], the binding result is “no binding”.

B3: HA-tagged human ADAR1 p150, wild type (protein, UniProt P55265-1 1-1226)
chain: MNPRQGYSLSGYYTHPFQGYEHRQLRYQQPGPGSSPSSFLLKQIEFLKGQLPEAPVIGKQTPSLPPSLPGLRPRFPVLLASSTRGRQVDIRGVPRGVHLRSQGLQRGFQHPSPRGRSLPQRGVDCLSSHFQELSIYQDQEQRILKFLEELGEGKATTAHDLSGKLGTPKKEINRVLYSLAKKGKLQKEAGTPPLWKIAVSTQAWNQHSGVVRPDGHSQGAPNSDPSLEPEDRNSTSVSEDLLEPFIAVSAQAWNQHSGVVRPDSHSQGSPNSDPGLEPEDSNSTSALEDPLEFLDMAEIKEKICDYLFNVSDSSALNLAKNIGLTKARDINAVLIDMERQGDVYRQGTTPPIWHLTDKKRERMQIKRNTNSVPETAPAAIPETKRNAEFLTCNIPTSNASNNMVTTEKVENGQEPVIKLENRQEARPEPARLKPPVHYNGPSKAGYVDFENGQWATDDIPDDLNSIRAAPGEFRAIMEMPSFYSHGLPRCSPYKKLTECQLKNPISGLLEYAQFASQTCEFNMIEQSGPPHEPRFKFQVVINGREFPPAEAGSKKVAKQDAAMKAMTILLEEAKAKDSGKSEESSHYSTEKESEKTAESQTPTPSATSFFSGKSPVTTLLECMHKLGNSCEFRLLSKEGPAHEPKFQYCVAVGAQTFPSVSAPSKKVAKQMAAEEAMKALHGEATNSMASDNQPEGMISESLDNLESMMPNKVRKIGELVRYLNTNPVGGLLEYARSHGFAAEFKLVDQSGPPHEPKFVYQAKVGGRWFPAVCAHSKKQGKQEAADAALRVLIGENEKAERMGFTEVTPVTGASLRRTMLLLSRSPEAQPKTLPLTGSTFHDQIAMLSHRCFNTLTNSFQPSLLGRKILAAIIMKKDSEDMGVVVSLGTGNRCVKGDSLSLKGETVNDCHAEIISRRGFIRFLYSELMKYNSQTAKDSIFEPAKGGEKLQIKKTVSFHLYISTAPCGDGALFDKSCSDRAMESTESRHYPVFENPKQGKLRTKVENGEGTIPVESSDIVPTWDGIRLGERLRTMSCSDKILRWNVLGLQGALLTHFLQPIYLKSVTLGYLFSQGHLTRAICCRVTRDGSAFEDGLRHPFIVNHPKVGRVSIYDSKRQSGKTKETSVNWCLADGYDLEILDGTRGTVDGPRNELSRVSKKNIFLLFKKLCSFRYRRDLLRLSYGEAKKAARDYETAKNYFKKGLKDMGYGNWISKPQEEKNFYLCPV
Take B3: the binding entry in experiment [1] is on record as “binds”.

B4: ADAR1 p110 (adenosine deaminase acting on RNA 1, constitutive p110 isoform), P55265-5 1-931 (protein)
chain: MAEIKEKICDYLFNVSDSSALNLAKNIGLTKARDINAVLIDMERQGDVYRQGTTPPIWHLTDKKRERMQIKRNTNSVPETAPAAIPETKRNAEFLTCNIPTSNASNNMVTTEKVENGQEPVIKLENRQEARPEPARLKPPVHYNGPSKAGYVDFENGQWATDDIPDDLNSIRAAPGEFRAIMEMPSFYSHGLPRCSPYKKLTECQLKNPISGLLEYAQFASQTCEFNMIEQSGPPHEPRFKFQVVINGREFPPAEAGSKKVAKQDAAMKAMTILLEEAKAKDSGKSEESSHYSTEKESEKTAESQTPTPSATSFFSGKSPVTTLLECMHKLGNSCEFRLLSKEGPAHEPKFQYCVAVGAQTFPSVSAPSKKVAKQMAAEEAMKALHGEATNSMASDNQPEGMISESLDNLESMMPNKVRKIGELVRYLNTNPVGGLLEYARSHGFAAEFKLVDQSGPPHEPKFVYQAKVGGRWFPAVCAHSKKQGKQEAADAALRVLIGENEKAERMGFTEVTPVTGASLRRTMLLLSRSPEAQPKTLPLTGSTFHDQIAMLSHRCFNTLTNSFQPSLLGRKILAAIIMKKDSEDMGVVVSLGTGNRCVKGDSLSLKGETVNDCHAEIISRRGFIRFLYSELMKYNSQTAKDSIFEPAKGGEKLQIKKTVSFHLYISTAPCGDGALFDKSCSDRAMESTESRHYPVFENPKQGKLRTKVENGEGTIPVESSDIVPTWDGIRLGERLRTMSCSDKILRWNVLGLQGALLTHFLQPIYLKSVTLGYLFSQGHLTRAICCRVTRDGSAFEDGLRHPFIVNHPKVGRVSIYDSKRQSGKTKETSVNWCLADGYDLEILDGTRGTVDGPRNELSRVSKKNIFLLFKKLCSFRYRRDLLRLSYGEAKKAARDYETAKNYFKKGLKDMGYGNWISKPQEEKNFYLCPV
In the case of B4, the binding entry in experiment [2] was “binds”.
